In US20230159931A1, “TARGETING THE PALMOTYLATION/DEPALMOTYLATION CYCLE TO TREAT INFLAMMATORY DISEASES” (CORNELL UNIVERSITY, priority 2020, published 2023):
No constants are given. Whether binding was seen depends on the method and setting. For some assays here: In cells and extracts the contact can be indirect. Some entries that bind do so weakly or less than the wild type. Sequences can lack the tags named with a protein. One block for each binder: values may come before it.

Experiments:
[1] = target: HA-SMAD2, Q15796; test: Flag pull-down from HEK293T cells, western blot (FIG. 9A, 9B); conditions: remark: other sources report otherwise
[2] = target: T1, Flag-SMAD4, Q13485; test: protein pull down assay, HEK293T cells (FIG. 9A); conditions: remark: other sources report otherwise
T1 chain: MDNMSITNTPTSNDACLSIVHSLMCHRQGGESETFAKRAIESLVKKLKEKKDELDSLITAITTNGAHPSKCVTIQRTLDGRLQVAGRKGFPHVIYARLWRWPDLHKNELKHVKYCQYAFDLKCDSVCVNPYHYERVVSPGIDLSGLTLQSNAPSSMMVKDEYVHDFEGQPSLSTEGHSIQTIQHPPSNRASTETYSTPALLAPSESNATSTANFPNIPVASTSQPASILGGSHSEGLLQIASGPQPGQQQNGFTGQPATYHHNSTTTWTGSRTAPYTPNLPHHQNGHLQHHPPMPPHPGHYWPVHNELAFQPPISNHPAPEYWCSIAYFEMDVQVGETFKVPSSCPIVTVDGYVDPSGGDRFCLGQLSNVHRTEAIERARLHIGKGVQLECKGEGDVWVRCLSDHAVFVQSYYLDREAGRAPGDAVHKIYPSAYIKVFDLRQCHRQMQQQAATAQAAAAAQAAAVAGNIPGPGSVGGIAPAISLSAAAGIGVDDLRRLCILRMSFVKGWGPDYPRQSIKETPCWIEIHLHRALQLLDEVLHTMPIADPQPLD

binding [1]: binds
B1: Flag-SMAD4, Q13485 1-552 (protein, UniProt Q13485 1-552, looked up, not shown: small tags and cut ends)
chain: T1 chain

binding [2]: binds
B2: HA-SMAD2, Q15796 1-467 (protein, UniProt Q15796 1-467, looked up, not shown: small tags and cut ends)
chain: MSSILPFTPPVVKRLLGWKKSAGGSGGAGGGEQNGQEEKWCEKAVKSLVKKLKKTGRLDELEKAITTQNCNTKCVTIPSTCSEIWGLSTPNTIDQWDTTGLYSFSEQTRSLDGRLQVSHRKGLPHVIYCRLWRWPDLHSHHELKAIENCEYAFNLKKDEVCVNPYHYQRVETPVLPPVLVPRHTEILTELPPLDDYTHSIPENTNFPAGIEPQSNYIPETPPPGYISEDGETSDQQLNQSMDTGSPAELSPTTLSPVNHSLDLQPVTYSEPAFWCSIAYYELNQRVGETFHASQPSLTVDGFTDPSNSERFCLGLLSNVNRNATVEMTRRHIGRGVRLYYIGGEVFAECLSDSAIFVQSPNCNQRYGWHPATVCKIPPGCNLKIFNNQEFAALLAQSVNQGFEAVYQLTRMCTIRMSFVKGWGAEYRRQTVTSTPCWIELHLNGPLQWLDKVLTQMGSPSVRCSSMS
